The results are deposited in PubChem (AID1347119; NCATS, 2019).

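MG-63 osteosarcoma cells resistant to 6-thioguanine, exposed to compounds for 48 hours; viability read as the luminescent signal from metabolically active cells.
Each compound ran as a dilution series, mostly reaching about 45.9 µM.
The value is the fitted potency (AC50, nM) for the cell-killing curve; lower values mean a more potent compound.
Calls follow curve shape; these rows are inconclusive, covering poorly fitted, partial or top-dose-only killing curves, a rising curve, and full killing curves presumably too small in effect.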

Values are in nM.
Every entry below has the call inconclusive.
Only part of the assay is shown, chiefly results filed as inconclusive.
Potencies fitted to partial, single-point or poorly fitting curves are rough.
Some entries filed as inconclusive have a full curve.

Nc1nc2[nH]cc(CCc3ccc(C(=O)N[C@@H](CCC(=O)O)C(=O)O)cc3)c2c(=O)[nH]1 read potency 329.1 nM (cytotoxic, full curve). COc1cc2c(cc1Cc1cccc(Cl)c1F)c(=O)c(C(=O)O)cn2[C@H](CO)C(C)C gave potency 6566 nM (cytotoxic, full curve). For CN1CCN(CCCN2c3ccccc3Sc3ccc(Cl)cc32)CC1 the result was potency 23297 nM (cytotoxic, partial curve, poor fit). CC(C)(C)c1cnc(CSc2cnc(NC(=O)C3CCNCC3)s2)o1 gave potency 927.5 nM (cytotoxic, full curve).

Result for C[C@@H](CN1CC(=O)NC(=O)C1)N1CC(=O)NC(=O)C1 was potency 23297 nM (cytotoxic, single point). Result for Cc1cn2c(-c3cn[nH]c3)cnc2c(Nc2ccc(C(=O)N3CCNCC3)cc2F)n1 was potency 11676 nM (cytotoxic, partial curve, poor fit).